Experimental data taken from PMC2688274.

Target: AGL74N-SEP2 dimer (Arabidopsis thaliana)
Assay: yeast three-hybrid; yeast PJ69-4; dimer clones (one partner fused to GAL4-AD, the other to a nuclear localization signal only, pARC352) mated with single proteins fused to GAL4-BD; growth on -L -W -A -H with 1, 5 or 10 mM 3-AT at 20°C for 7 days, and LacZ assay

B1: ARABIDOPSIS BSISTER, long splice form (ABS-I) (protein, UniProt Q8RYD9 1-252)
chain: MGRGKIEIKKIENQTARQVTFSKRRTGLIKKTRELSILCDAHIGLIVFSATGKLSEFCSEQNRMPQLIDRYLHTNGLRLPDHHDDQEQLHHEMELLRRETCNLELRLRPFHGHDLASIPPNELDGLERQLEHSVLKVRERKNELMQQQLENLSRKRRMLEEDNNNMYRWLHEHRAAMEFQQAGIDTKPGEYQQFIEQLQCYKPGEYQQFLEQQQQQPNSVLQLATLPSEIDPTYNLQLAQPNLQNDPTAQND
binding: binds

Results are given in words; binding and its absence hold for the method and conditions named. Binding calls can cover weak binding; strength is not graded here.
